Measurements from PMC9266177.
These are yes or no findings as the source states them, for the method shown. In cells and extracts the contact can be indirect. Some results given as binding are weak or reduced against the parent protein; the word gives no strength.

Sequences of proteins named here, by UniProt entry; tags and fusion partners are left off. A change or cut given only in a name is not applied to a line headed by its entry.
UniProt Q96D31: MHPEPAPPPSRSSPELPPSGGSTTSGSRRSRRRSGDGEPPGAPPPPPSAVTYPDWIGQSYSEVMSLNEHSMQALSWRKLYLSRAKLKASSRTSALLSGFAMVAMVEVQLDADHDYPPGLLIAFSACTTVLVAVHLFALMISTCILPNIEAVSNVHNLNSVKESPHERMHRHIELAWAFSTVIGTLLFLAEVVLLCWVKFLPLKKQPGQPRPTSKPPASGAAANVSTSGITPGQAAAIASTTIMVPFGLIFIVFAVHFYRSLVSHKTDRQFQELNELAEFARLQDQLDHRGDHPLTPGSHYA
UniProt Q14571: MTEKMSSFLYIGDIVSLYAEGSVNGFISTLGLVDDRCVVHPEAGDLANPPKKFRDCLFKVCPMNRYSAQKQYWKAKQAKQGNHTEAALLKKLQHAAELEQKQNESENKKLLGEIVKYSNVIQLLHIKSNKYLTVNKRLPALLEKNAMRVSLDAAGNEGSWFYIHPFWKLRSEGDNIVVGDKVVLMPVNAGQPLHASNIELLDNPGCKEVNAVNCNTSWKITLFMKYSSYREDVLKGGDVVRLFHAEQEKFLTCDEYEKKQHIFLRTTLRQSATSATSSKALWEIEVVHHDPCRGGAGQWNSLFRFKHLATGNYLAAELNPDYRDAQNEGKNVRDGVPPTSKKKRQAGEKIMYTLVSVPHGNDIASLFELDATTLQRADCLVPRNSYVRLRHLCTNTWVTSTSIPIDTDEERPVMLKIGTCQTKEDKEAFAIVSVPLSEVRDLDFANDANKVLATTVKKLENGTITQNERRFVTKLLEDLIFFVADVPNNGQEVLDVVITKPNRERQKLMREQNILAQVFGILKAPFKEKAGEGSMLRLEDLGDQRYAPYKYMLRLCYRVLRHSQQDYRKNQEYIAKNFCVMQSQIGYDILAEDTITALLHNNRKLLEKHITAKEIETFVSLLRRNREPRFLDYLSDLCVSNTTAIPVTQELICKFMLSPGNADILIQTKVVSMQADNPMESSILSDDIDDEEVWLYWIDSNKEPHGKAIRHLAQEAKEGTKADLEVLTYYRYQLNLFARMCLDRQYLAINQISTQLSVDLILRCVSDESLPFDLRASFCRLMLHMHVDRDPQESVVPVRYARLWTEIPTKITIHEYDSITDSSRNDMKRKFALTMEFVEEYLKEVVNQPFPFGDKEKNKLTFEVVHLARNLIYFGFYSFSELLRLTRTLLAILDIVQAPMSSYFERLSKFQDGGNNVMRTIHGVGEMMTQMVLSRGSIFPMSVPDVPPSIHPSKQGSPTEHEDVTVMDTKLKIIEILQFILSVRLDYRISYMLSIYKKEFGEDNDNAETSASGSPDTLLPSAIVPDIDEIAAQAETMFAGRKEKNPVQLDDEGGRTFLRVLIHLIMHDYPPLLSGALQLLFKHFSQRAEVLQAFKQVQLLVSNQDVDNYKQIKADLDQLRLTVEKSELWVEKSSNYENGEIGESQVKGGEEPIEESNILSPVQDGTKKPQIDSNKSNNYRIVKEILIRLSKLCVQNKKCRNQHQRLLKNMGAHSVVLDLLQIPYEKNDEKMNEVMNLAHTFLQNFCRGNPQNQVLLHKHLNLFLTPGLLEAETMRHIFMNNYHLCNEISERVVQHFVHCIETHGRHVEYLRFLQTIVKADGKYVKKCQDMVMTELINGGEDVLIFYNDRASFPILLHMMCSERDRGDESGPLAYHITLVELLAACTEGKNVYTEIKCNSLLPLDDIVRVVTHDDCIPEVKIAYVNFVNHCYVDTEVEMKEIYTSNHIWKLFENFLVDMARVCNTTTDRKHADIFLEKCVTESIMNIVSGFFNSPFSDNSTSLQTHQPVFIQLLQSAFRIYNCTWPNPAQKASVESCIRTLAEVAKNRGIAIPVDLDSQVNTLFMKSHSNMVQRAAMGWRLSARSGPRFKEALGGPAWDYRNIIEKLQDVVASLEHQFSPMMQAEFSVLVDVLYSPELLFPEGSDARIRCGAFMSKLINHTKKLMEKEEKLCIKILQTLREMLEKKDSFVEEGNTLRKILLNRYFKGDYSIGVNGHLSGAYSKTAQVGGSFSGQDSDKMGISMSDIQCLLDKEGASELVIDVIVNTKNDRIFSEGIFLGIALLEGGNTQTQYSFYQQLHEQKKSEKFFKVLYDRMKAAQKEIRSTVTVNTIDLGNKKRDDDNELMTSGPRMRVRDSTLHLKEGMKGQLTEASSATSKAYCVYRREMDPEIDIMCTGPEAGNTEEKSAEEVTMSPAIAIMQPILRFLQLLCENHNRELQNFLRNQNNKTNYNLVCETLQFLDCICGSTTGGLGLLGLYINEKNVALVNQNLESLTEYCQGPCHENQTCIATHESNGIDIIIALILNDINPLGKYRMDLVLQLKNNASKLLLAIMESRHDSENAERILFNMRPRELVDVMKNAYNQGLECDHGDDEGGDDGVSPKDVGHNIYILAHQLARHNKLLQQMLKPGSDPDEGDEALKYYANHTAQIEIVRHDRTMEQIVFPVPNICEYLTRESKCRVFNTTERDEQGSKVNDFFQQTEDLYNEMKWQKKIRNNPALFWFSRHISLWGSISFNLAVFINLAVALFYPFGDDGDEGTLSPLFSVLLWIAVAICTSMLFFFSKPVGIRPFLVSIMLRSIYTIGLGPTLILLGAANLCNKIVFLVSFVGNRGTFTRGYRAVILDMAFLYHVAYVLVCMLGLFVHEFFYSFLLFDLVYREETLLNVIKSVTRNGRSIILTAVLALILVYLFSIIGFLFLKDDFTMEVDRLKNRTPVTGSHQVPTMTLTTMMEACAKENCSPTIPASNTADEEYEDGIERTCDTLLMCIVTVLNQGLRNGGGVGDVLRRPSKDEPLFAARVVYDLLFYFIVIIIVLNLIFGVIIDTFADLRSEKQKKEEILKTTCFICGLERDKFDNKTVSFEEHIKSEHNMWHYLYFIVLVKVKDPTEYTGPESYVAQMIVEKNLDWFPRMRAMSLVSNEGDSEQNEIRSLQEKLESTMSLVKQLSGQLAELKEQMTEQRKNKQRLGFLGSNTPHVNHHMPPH

Assays:
[1] = molecular target: Orai1-S27A/S30A (phosphorylation-resistant mutant) (UniProt Q96D31); assay: proximity ligation; Duolink PLA in fixed, permeabilised HeLa cells expressing eYFP-O1, O1-DD or O1-AA, at rest or after ATP (10 uM) plus TG (1 uM) for 3 min; rabbit anti-Orai1 and mouse anti-IP3R2; red dots per nucleus
[2] = molecular target: Orai1-S27D/S30D (phosphomimetic mutant) (UniProt Q96D31); assay: as above
eYFP-Orai1 = eYFP-Orai1 (UniProt Q96D31); assay: as above
[3] = molecular target: Orai1-S27A/S30A (phosphorylation-resistant mutant) (UniProt Q96D31); assay: co-IP; HeLa cells, mock or transfected, at rest or stimulated with ATP (10 uM) plus TG (1 uM) for 3 min in HEPES-buffered saline with 1.8 mM CaCl2; NP-40 lysis buffer; precipitated with 1 ug anti-Orai1 or anti-Flag and protein A agarose overnight at 4 °C; blot for IP3R; data are the ratio of IP3R signal/Orai1 signal
[4] = molecular target: Orai1-S27D/S30D (phosphomimetic mutant) (UniProt Q96D31); assay: as above
[5] = molecular target: endogenous Orai1 channel (human (endogenous in HeLa)) (UniProt Q96D31); assay: as above
[6] = molecular target: wild type Orai1 channel (O1-wt), overexpressed (UniProt Q96D31); assay: as above

Measured: binding

IP3R2 (from UniProt Q14571 1-2701) (receptor)
binds: [1] | [2] | eYFP-Orai1 | [3] | [4] | [5] | [6]
